Laboratory results from article PMC7247550.

How the values were obtained:
[1] = target: NME1 (human (endogenous in SK-N-BE(2) and SK-N-AS)), P15531; test: affinity purification with mass spectrometry; endogenous NME1 immunoprecipitated with mouse monoclonal nm23-H1 sc-465 antibody and protein A agarose from SK-N-BE(2) and SK-N-AS lysates (20 mM Tris HCl pH 8, 100 mM NaCl, 2 mM EDTA, 1% NP40, Benzonase), 4 °C; eluted proteins digested with trypsin, LC-MS/MS; conditions: remark: other sources report otherwise
[2] = target: NME1 (human (endogenous in SK-N-BE(2) and SK-N-AS)) (UniProt P15531); test: as above

B1: NME2, P22392 1-152 (protein)
chain: MANLERTFIAIKPDGVQRGLVGEIIKRFEQKGFRLVAMKFLRASEEHLKQHYIDLKDRPFFPGLVKYMNSGPVVAMVWEGLNVVKTGRVMLGETNPADSKPGTIRGDFCIQVGRNIIHGSDSVKSAEKEISLWFKPEELVDYKSCAHDWVYE
binding [1]: binds

B2: NME3 (protein, UniProt Q13232 1-169)
chain: MICLVLTIFANLFPAACTGAHERTFLAVKPDGVQRRLVGEIVRRFERKGFKLVALKLVQASEELLREHYAELRERPFYGRLVKYMASGPVVAMVWQGLDVVRTSRALIGATNPADAPPGTIRGDFCIEVGKNLIHGSDSVESARREIALWFRADELLCWEDSAGHWLYE
binding [2]: binds

Results are given in words; binding and its absence hold for the method and conditions named. Binding seen in cells or lysates may run through a third protein. Here binding means that the protein was enriched with, or labelled near, the bait; the list need not be complete.
